# Laboratory results: PMC10572361
# Results are given in words; binding and its absence hold for the method and conditions named. Binding seen in cells or lysates may run through a third protein. Some binding calls cover weakened binding; strength is not graded here.
# B1: caspase3, P42574 1-277 (enzyme)
# chain: MENTENSVDSKSIKNLEPKIIHGSESMDSGISLDNSYKMDYPEMGLCIIINNKNFHKSTGMTSRSGTDVDAANLRETFRNLKYEVRNKNDLTREEIVELMRDVSKEDHSKRSSFVCVLLSHGEEGIIFGTNGPVDLKKITNFFRGDRCRSLTGKPKLFIIQACRGTELDCGIETDSGVDDDMACHKIPVEADFLYAYSTAPGYYSWRNSKDGSWFIQSLCAMLKQYADKLEFMHILTRVNRKVATEFESFSFDATFHAKKQIPCIVSMLTKELYFYH
# Target: BIRC5 (baculoviral IAP repeat containing 5; Survivin) (human (endogenous in A549)), O15392
# Assay: co-IP; Co-IP in A549 cells; which protein was precipitated is not told; n = 3
# Settings: remark: other sources report otherwise
binder,measurement,value
B1,binding,binds
